# Assay results reported in the supplement of paper PMC12067093, “Discovery and optimisation of a covalent ligand for TRIM25 and its application to targeted protein ubiquitination” (Chemical Science, 2025).
# The chains behind the UniProt entries cited, without tags or fusion partners. Where a name states a change or a piece, a line headed by the entry shows the natural chain unless it says otherwise.
# UniProt P28838: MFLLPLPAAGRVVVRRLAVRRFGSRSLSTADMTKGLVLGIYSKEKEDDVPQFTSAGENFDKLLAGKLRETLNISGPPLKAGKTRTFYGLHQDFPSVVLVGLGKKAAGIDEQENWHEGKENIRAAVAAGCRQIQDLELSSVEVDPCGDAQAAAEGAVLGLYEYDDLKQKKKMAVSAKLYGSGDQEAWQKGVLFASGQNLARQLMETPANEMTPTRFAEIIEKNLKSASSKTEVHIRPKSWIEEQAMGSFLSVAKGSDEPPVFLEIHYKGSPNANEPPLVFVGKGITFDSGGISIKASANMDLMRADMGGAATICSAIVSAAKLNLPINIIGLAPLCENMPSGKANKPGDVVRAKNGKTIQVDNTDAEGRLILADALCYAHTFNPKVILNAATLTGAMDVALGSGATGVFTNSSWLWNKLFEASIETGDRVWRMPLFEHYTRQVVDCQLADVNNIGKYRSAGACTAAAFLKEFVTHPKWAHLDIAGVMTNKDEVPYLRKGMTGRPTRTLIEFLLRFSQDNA
# UniProt Q4G0J3: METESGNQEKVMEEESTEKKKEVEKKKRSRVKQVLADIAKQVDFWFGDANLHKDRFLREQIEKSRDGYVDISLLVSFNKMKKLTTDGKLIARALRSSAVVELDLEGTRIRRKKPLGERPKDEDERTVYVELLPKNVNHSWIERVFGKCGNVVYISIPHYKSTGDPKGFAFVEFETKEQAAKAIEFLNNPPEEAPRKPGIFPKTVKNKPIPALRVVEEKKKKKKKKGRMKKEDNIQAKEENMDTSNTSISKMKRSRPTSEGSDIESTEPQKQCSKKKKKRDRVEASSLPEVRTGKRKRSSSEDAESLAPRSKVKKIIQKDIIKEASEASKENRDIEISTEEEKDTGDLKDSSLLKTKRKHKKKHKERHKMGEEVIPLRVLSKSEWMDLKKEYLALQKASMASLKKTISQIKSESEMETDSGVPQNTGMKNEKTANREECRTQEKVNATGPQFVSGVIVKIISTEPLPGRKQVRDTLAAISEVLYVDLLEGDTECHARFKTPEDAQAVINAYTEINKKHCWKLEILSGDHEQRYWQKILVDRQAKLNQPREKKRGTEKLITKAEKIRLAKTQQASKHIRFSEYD
# UniProt Q53H82: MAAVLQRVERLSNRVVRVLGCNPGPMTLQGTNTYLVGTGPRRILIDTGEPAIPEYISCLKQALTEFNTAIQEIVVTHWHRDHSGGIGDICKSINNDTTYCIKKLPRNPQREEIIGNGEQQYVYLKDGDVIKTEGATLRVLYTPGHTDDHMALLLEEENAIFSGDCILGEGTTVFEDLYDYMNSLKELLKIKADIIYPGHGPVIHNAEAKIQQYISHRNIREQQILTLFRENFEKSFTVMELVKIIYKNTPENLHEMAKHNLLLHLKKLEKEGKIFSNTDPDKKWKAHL
# UniProt O95235: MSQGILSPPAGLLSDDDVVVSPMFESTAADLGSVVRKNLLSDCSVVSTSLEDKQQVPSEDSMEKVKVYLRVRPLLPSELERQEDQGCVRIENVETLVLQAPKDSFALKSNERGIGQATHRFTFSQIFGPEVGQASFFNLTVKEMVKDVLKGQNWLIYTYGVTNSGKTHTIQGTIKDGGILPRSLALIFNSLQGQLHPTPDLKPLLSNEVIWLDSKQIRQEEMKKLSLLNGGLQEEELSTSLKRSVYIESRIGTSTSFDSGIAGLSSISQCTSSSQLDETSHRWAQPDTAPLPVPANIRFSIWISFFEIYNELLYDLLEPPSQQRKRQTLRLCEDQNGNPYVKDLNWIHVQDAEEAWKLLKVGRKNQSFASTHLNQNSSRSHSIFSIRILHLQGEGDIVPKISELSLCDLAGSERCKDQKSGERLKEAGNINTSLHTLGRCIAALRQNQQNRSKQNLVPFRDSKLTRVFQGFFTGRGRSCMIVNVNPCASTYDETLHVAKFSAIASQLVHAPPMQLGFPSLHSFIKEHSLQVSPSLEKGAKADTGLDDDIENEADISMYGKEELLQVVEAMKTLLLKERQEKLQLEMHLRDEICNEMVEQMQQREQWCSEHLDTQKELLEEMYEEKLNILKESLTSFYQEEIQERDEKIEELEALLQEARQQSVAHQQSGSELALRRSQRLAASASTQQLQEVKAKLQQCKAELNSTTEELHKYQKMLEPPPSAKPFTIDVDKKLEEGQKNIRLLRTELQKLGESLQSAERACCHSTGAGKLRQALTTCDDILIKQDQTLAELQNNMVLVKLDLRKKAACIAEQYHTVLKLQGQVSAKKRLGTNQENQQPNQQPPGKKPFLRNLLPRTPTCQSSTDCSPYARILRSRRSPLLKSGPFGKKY
# UniProt Q9P2J5: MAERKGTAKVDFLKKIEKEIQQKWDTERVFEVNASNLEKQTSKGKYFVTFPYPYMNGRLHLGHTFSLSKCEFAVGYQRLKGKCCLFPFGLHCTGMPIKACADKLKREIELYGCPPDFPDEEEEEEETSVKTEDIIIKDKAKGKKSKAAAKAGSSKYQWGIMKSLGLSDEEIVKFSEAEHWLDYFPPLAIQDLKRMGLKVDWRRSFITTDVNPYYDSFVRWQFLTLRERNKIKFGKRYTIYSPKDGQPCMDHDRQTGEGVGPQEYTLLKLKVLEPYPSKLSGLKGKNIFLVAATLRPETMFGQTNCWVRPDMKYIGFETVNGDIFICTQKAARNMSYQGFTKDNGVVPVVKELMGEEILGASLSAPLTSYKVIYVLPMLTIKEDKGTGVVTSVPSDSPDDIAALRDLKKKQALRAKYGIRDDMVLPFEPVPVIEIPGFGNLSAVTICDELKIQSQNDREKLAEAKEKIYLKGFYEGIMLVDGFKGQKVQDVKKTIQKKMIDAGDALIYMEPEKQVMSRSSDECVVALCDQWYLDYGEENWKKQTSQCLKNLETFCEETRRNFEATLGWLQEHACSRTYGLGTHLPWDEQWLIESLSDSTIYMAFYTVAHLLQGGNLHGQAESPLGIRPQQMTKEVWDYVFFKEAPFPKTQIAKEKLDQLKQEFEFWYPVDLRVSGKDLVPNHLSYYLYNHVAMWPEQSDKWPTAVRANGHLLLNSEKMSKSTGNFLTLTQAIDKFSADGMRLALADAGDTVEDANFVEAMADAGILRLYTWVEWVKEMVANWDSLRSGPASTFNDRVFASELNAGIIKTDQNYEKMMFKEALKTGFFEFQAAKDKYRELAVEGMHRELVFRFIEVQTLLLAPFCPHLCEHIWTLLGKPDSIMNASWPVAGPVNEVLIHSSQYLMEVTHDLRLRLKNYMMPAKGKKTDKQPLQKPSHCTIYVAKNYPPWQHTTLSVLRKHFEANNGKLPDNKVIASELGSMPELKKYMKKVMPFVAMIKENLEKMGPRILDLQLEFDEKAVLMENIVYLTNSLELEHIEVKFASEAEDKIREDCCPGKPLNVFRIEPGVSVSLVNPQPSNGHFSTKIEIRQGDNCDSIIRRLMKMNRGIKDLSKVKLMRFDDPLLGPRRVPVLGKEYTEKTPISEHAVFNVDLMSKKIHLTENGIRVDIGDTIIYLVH
# UniProt Q8NG31: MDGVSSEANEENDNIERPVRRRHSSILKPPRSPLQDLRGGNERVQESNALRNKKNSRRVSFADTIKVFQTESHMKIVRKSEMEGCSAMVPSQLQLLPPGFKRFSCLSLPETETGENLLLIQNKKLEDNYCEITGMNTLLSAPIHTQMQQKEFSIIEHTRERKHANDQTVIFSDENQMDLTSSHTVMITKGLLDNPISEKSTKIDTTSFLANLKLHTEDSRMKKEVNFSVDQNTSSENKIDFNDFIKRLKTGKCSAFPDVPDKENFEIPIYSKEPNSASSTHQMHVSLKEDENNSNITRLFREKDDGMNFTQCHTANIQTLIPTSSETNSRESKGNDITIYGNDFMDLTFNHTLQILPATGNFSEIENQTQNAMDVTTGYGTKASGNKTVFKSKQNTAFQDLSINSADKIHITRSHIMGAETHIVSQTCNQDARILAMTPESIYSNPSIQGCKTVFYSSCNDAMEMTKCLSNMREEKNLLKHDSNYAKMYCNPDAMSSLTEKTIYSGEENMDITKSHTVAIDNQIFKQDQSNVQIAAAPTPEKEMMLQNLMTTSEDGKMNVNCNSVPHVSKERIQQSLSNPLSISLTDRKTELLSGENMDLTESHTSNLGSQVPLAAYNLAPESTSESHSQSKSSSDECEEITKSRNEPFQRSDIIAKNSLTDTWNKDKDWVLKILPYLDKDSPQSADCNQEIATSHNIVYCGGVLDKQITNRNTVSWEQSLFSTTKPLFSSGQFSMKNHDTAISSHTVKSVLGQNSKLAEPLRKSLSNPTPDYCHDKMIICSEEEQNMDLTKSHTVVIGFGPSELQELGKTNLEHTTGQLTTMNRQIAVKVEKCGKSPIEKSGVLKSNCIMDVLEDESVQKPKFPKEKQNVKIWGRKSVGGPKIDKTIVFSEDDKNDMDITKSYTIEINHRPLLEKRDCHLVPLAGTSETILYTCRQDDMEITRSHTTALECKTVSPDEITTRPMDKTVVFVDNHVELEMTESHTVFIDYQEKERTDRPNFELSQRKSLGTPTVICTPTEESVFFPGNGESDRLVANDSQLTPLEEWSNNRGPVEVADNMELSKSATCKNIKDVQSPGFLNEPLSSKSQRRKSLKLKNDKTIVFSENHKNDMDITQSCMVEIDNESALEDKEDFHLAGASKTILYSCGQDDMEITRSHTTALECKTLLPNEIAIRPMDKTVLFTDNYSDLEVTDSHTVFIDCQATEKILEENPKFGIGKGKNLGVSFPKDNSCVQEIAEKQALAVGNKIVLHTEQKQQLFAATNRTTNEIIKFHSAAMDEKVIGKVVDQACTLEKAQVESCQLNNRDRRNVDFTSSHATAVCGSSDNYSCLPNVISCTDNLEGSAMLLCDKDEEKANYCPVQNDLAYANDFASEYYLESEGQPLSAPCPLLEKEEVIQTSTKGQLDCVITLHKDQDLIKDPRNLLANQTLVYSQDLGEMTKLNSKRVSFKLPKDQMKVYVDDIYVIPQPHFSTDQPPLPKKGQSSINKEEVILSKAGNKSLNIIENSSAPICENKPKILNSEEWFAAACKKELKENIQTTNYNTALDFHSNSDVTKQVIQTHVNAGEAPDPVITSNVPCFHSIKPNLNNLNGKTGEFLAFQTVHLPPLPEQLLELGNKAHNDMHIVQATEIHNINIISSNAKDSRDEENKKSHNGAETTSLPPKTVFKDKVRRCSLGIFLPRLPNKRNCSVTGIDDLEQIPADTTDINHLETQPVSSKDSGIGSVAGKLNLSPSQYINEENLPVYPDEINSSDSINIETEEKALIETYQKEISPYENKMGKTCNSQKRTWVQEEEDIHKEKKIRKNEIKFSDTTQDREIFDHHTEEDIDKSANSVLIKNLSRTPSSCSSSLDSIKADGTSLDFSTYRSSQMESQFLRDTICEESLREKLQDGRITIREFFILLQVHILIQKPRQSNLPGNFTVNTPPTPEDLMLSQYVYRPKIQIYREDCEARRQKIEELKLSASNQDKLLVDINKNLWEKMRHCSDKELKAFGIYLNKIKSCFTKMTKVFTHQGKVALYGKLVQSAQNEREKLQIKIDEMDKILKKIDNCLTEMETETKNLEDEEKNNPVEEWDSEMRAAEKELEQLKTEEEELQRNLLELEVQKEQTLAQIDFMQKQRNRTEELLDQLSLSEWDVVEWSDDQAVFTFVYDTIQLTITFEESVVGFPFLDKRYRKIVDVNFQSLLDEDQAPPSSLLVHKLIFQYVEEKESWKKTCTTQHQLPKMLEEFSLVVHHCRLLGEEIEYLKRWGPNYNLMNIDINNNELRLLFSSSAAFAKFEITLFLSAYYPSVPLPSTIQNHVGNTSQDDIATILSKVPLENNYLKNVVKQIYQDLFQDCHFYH
# UniProt Q99661: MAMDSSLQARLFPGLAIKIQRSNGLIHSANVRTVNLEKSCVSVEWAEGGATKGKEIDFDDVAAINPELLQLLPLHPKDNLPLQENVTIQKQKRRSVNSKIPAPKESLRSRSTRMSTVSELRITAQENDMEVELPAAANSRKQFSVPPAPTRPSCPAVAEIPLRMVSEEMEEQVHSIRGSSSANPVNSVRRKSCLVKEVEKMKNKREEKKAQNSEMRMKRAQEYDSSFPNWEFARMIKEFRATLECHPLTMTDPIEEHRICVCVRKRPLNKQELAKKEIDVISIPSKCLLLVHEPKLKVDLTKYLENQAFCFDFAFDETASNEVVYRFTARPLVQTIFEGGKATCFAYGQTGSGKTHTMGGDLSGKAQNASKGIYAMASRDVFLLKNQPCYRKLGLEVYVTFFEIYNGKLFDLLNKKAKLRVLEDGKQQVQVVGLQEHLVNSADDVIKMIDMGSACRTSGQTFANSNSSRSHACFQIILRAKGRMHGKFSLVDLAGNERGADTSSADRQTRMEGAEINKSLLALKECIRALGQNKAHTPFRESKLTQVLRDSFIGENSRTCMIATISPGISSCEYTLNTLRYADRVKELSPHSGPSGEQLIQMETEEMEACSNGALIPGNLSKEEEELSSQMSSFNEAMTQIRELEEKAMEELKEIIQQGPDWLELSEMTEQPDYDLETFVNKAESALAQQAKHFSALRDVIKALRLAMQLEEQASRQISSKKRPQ
# The list shows a part of the results.
# Compound: CC1Cc2ccccc2N1C(=O)C1CCCN(C1)C(=O)CCl (mixture of isomers) [TRIM25 ligand 11 (diastereomer mixture)]
# Assay: probe-labelled cysteine peptide fold change vs DMSO (competition) (log2 fold change); higher = less target engagement (more negative = stronger competition)
# Conditions: THP-1, incubation time: 4 h
# 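Further: competitive chemoproteomic profiling in live THP-1 cells with an iodoacetamide desthiobiotin (IA-DTB) probe, comparing probe-labelled peptide intensities in compound-treated cells against DMSO-treated controls.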
Target,probe-labelled cysteine peptide fold change (10 µM),probe-labelled cysteine peptide fold change (50 µM)
LAP3_P28838_129_AAVAAGCR (UniProt P28838),-0.0533,0.0414
KIF1C_O43896_685_SCEESWR (UniProt O43896),0.0708,-0.145
LASP1_Q14847_35_ACFHCETCK (UniProt Q14847),-0.0242,0.0173
KPNA4_O00629_57_NVPHEDICEDSDIDGDYR (UniProt O00629),-0.332,-0.102
LARP7_Q4G0J3_148_CGNVVYISIPHYK (UniProt Q4G0J3),-0.0903,-0.087
LACTB2_Q53H82_100_SINNDTTYCIK (UniProt Q53H82),-0.0643,-0.0889
KIZ_Q2M2Z5_50_LYEYNQSDTCR (UniProt Q2M2Z5),0.0174,-0.0661
KIF5B_P33176_65_VFQSSTSQEQVYNDCAK (UniProt P33176),0.0509,-0.00101
KITLG_P21583_114_LVNIVDDLVECVK (UniProt P21583),0.184,-0.0652
KIF20A_O95235_87_QEDQGCVR (UniProt O95235),0.109,0.0259
LANCL2_Q9NS86_367_GYGICHGTAGNGYSFLSLYR (UniProt Q9NS86),0.0845,-0.0445
KLHL26_Q53HC5_383_SGEGAVDACYR (UniProt Q53HC5),0.33,0.211
KIFC1_Q9BW19_663_VNQCVIGTAQANRK (UniProt Q9BW19),-0.103,-0.113
L3HYPDH_Q96EM0_137_VNIHCPCGLVTAFVACEDGR (UniProt Q96EM0),-0.0395,0.033
LARS_Q9P2J5_83+84_CCLFPFGLHCTGMPIK (UniProt Q9P2J5),0.0917,-0.0459
KIFC1_Q9BW19_557_GLQCGAPLSLVDLAGSER (UniProt Q9BW19),0.0546,0.0532
LAP3_P28838_462_SAGACTAAAFLK (UniProt P28838),-0.0234,-0.105
LARS_Q9P2J5_546_QTSQCLK (UniProt Q9P2J5),-0.0199,0.0402
KIF22_Q14807_575_AEDCWELQISPELLAHGR (UniProt Q14807),-0.0871,0.135
LACTB2_Q53H82_21_VLGCNPGPMTLQGTNTYLVGTGPR (UniProt Q53H82),-0.0989,-0.185
KPNB1_Q14974_359_AAGVCLMLLATCCEDDIVPHVLPFIK (UniProt Q14974),-0.313,-0.0267
KNTC1_P50748_390_CLTEALPENR (UniProt P50748),-0.0246,-0.0768

Target,probe-labelled cysteine peptide fold change (10 µM),probe-labelled cysteine peptide fold change (50 µM)
LARP4B_Q92615_167_TLEFCLSR (UniProt Q92615),-0.169,-0.00403
LAP3_P28838_445_QVVDCQLADVNNIGK (UniProt P28838),0.106,0.131
KLHL15_Q96M94_588_LDGLQVCNLHFPDYVLDEVRR (UniProt Q96M94),0.0637,-0.157
KIF20B_Q96Q89_1642_HPGCTTPVTVK (UniProt Q96Q89),-0.0424,0.0715
LAMTOR5_O43504_33_NPSIVGVLCTDSQGLNLGCR (UniProt O43504),-0.337,0.0746
KLHL7_Q8IXQ5_259_TVQAEPLIQDNPECLK (UniProt Q8IXQ5),0.039,0.116
LARS_Q9P2J5_554_NLETFCEETRR (UniProt Q9P2J5),-0.075,-0.119
"LARP1B_Q659C4_102_CQPEANKPTHNNR, A0A3B3ISF0+Q659C4",-0.0075,-0.196
KNL1_Q8NG31_638_SSSDECEEITK (UniProt Q8NG31),-0.196,-0.173
KPNA4_O00629_417_DQVAYLIQQNVIPPFCNLLTVK (UniProt O00629),0.407,0.126
LAMC1_P11047_367_STGHGGHCTNCQDNTDGAHCER (UniProt P11047),0.451,0.0296
KNL1_Q8NG31_2338_QIYQDLFQDCHFYH (UniProt Q8NG31),-0.126,-0.0766
L3MBTL2_Q969R5_446_LEAIDPLNLGNICVATVCK (UniProt Q969R5),0.279,0.277
KMT2B_Q9UMN6_1268_HLLECER (UniProt Q9UMN6),0.101,0.112
LANCL2_Q9NS86_248_CPLLYQWHR (UniProt Q9NS86),-0.00504,0.0157
LDHD_Q86WU2_274_LHPAPEATVAATCAFPSVQAAVDSTVHILQAAVPVAR (UniProt Q86WU2),0.0135,0.161
KIFC1_Q9BW19_212_ACVLELEER (UniProt Q9BW19),0.0347,-0.0696
"LARP1B_Q659C4_649_HSTNPPLECHVGWVMDSR, A0A3B3ISF0+Q659C4",0.123,0.0455
LANCL1_O43813_363_FAEWCLEYGEHGCR (UniProt O43813),0.041,0.0992
KYNU_Q16719_401_GCQLTITFSVPNK (UniProt Q16719),-0.0576,0.034
KPNB1_Q14974_765_ESCLEAYTGIVQGLKGDQENVHPDVMLVQPR (UniProt Q14974),0.0989,-0.218
L3MBTL3_Q96JM7_583_HLGPHSAANCPYSEINLNK (UniProt Q96JM7),0.0731,0.097

Target,probe-labelled cysteine peptide fold change (10 µM),probe-labelled cysteine peptide fold change (50 µM)
KIF2C_Q99661_344_ATCFAYGQTGSGK (UniProt Q99661),0.00355,0.00268
KIF20A_O95235_809_AACIAEQYHTVLK (UniProt O95235),0.0246,0.0489
KPNA6_O60684_422_YLVSLGCIK (UniProt O60684),-0.044,0.154
LARS_Q9P2J5_248_DGQPCMDHDR (UniProt Q9P2J5),0.0762,0.0653
KPNB1_Q14974_667_NYAEYQVCLAAVGLVGDLCR (UniProt Q14974),0.21,0.214
LARS_Q9P2J5_573_NFEATLGWLQEHACSR (UniProt Q9P2J5),-0.00584,-0.174
KIF2C_Q99661_473_SHACFQIILR (UniProt Q99661),-0.081,-0.125
KIF4A_O95239_965_CQDEELEK (UniProt O95239),0.0357,-0.113
KIF3A_Q9Y496_230_SHAIFTITIECSEK (UniProt Q9Y496),0.112,-0.0259
L3MBTL2_Q969R5_368_LLYEDGDSDDDFWCHMWSPLIHPVGWSR (UniProt Q969R5),0.11,-0.0453
LAMP5_Q9UJQ1_182_SYECQAQQTISLASSDPQK (UniProt Q9UJQ1),0.355,0.0549
KNL1_Q8NG31_1407_GQLDCVITLHK (UniProt Q8NG31),0.02,0.0193
KLC4_Q9NSK0_489_QGKLEAAETLEECALR (UniProt Q9NSK0),-0.233,-0.291
LARS_Q9P2J5_1053_IREDCCPGKPLNVFR (UniProt Q9P2J5),0.0323,-0.0921
KTN1_Q86UP2_1105_ECMAGTSGSEEVK (UniProt Q86UP2),-0.163,-0.358
KIF2C_Q99661_287_CLLLVHEPK (UniProt Q99661),0.0243,0.0609
LARP7_Q4G0J3_438_TANREECR (UniProt Q4G0J3),-0.0364,-0.0648
KLHDC4_Q8TBB5_58_RTQTVELPCPPPSPR (UniProt Q8TBB5),0.00723,-0.0257
KLHL42_Q9P2K6_399_QQMVSVEETIYIVGGCLHELGPNRR (UniProt Q9P2K6),0.0912,0.485
KMT2A_Q03164_1194_CQNLQWMPSK (UniProt Q03164),-0.0867,-0.0567
LANCL2_Q9NS86_149_RVTFLCGDAGPLAVGAVIYHK (UniProt Q9NS86),-0.359,0.0573
KTI12_Q96EK9_103_TPLCLVYCVRPGGPIAGPQVAGANENPGR (UniProt Q96EK9),-0.283,-0.123

Target,probe-labelled cysteine peptide fold change (10 µM),probe-labelled cysteine peptide fold change (50 µM)
L3MBTL2_Q969R5_197_AAPVSCFK (UniProt Q969R5),0.00668,0.0309
KIF20B_Q96Q89_80_ELESEGCVHILDSQTVVLK (UniProt Q96Q89),0.118,0.143
KIF22_Q14807_201_VLDLLDPASGDLVIREDCR (UniProt Q14807),-0.154,-0.158
KNTC1_P50748_980_KDECEEMLK (UniProt P50748),-0.0221,-0.13
KIF2A_O00139_406_CVEDVLK (UniProt O00139),-0.127,0.227
KNL1_Q8NG31_253_CSAFPDVPDK (UniProt Q8NG31),-0.14,-0.11
L3HYPDH_Q96EM0_137+148_VNIHCPCGLVTAFVACEDGR (UniProt Q96EM0),0.205,-0.12
LCOR_Q96JN0-3_304_ILEGQTTGQEQDTNVNICEDGK (UniProt Q96JN0),0.173,0.0886
L3MBTL3_Q96JM7_723_WSTDEVSEFIQSLPGCEEHGK (UniProt Q96JM7),0.0157,0.25
KIF2C_Q99661_245_ATLECHPLTMTDPIEEHR (UniProt Q99661),-0.0596,-0.0795
LAMTOR5_O43504_23+33_NPSIVGVLCTDSQGLNLGCR (UniProt O43504),-0.148,0.226
KIF5B_P33176_7_ADLAECNIK (UniProt P33176),0.0117,0.0526
LDHA_P00338_131_YSPNCK (UniProt P00338),0.206,0.232
L2HGDH_Q9H9P8_272_ISELSGCTPDPR (UniProt Q9H9P8),-0.0945,-0.0575
KLHDC4_Q8TBB5_373_EEPEGGSRPACGGAGTQGPVQLVK (UniProt Q8TBB5),0.109,0.0228
KIF21A_Q7Z4S6_1588_DWVCALGVVPDHPVLLSGCR (UniProt Q7Z4S6),-0.0119,-0.0291
KYNU_Q16719_45_HFRECFYIPK (UniProt Q16719),-0.542,-0.3
KLC1_Q07866_390_NNLASCYLK (UniProt Q07866),-0.2,-0.00724
KTN1_Q86UP2_303_TMMFSEDEALCVVDLLK (UniProt Q86UP2),0.0102,-0.253
